## Screening data, single-dose tests

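Whole-cell growth test on Mycobacterium tuberculosis, read after 3 days in glucose-containing 7H9 medium; the read-out is not stated. Concentration: 500 µM. Higher reads as more growth inhibition (inferred: compounds with an IC50 in retests scored well above the rest). About 18,000 compounds were tested under these conditions; 7.9% (about 1,400) showed 50% or more at least once.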

Each number is a percent effect as filed.
The record does not define 0% and 100%; most values in the screen are far below 50% and negative numbers occur (in some assays of this library far below -100).
Compounds were drawn at random from those tested, without regard to their results.

Result for CSc1ccc2c(c1)CCN(C(=O)C1CCNC1)C2 (stereo not drawn) was 72.69%.
Result for Cc1cnccc1NCCNC(=O)[C@H]1CCC[C@H](O)C1 was -1.656%.
Result for COc1ccnc(CSc2n[nH]c(=O)n2C)c1OC was -6.21%.
Result for O=S1(=O)CCC(CNc2ccnc3cc(F)ccc23)C1 (stereo not drawn) was -10.86%.
Result for CNC(C)c1cccnc1 (stereo not drawn) was 7.834%.
Result for CSc1ncc(C(=O)N2CC[C@](C)(O)[C@H](C)C2)cn1 was -4.927%.
Result for CCc1noc(CN2CCC(C)CC2)n1 was 29.58%.
Result for Cc1ccc(NC(=O)NC(C)(CO)CO)cc1Br was 13.18%.
Result for Cc1c[nH]c(CN(C)Cc2ccncc2Cl)n1 was -4.979%.
Result for CCOCCOc1cc(C(N)=O)ccc1C was 25.14%.
Result for CC(C)Oc1ccc(C(CN)N(C)C)cc1 (stereo not drawn) was 81.93%.
Result for CC(C(=O)Nc1ccc(C(N)=O)cc1)N1CCCC1 (stereo not drawn) was -5.414%.
Result for CC(O)c1cnc2ccccc2c1 (stereo not drawn) was 12.53%.
Result for N#Cc1ccc(-c2nnc(CN3CCC(O)C3)o2)cc1 (stereo not drawn) was 6.68%.
Result for CCCc1cc(CN(C)C(=O)c2nc(C)c[nH]2)n[nH]1 was 41.79%.
Result for Cc1ccccc1C(C)NC(=O)CSc1nnc[nH]1 (stereo not drawn) was 17.45%.
Result for Nc1[nH]ncc1CCCO was 6.09%.
Result for CCC(C)N(C)C(=O)c1ccc(C(=O)OC)cc1 (stereo not drawn) was 43%.
Result for COCCC(NS(N)(=O)=O)c1ccc(Cl)c(Cl)c1 (stereo not drawn) was 31.06%.
Result for CCCSc1ccc(NC(=O)NCCN)cc1 was 76.87%.
Result for COc1ccnc(NCc2ccc(CO)c(F)c2)n1 was 50.68%.
Result for CN(Cc1cc2ccccc2s1)C(=O)[C@H]1C[C@@H](O)CN1 was 36.44%.
Result for CC(C)N1CCC(NC(=O)c2c(Br)cnn2C)CC1 was 13.94%.
Result for CC(NC(=O)c1cc(N(C)C)ccn1)c1ncon1 (stereo not drawn) was 1.797%.
Result for N#Cc1c(N)sc2c1CCS(=O)(=O)C2 was -38.72%.
Result for Cn1cc(C(N)=O)c(C(F)F)n1 was -4.496%.
Result for COc1ccccc1NCC(=O)NCc1cnn(C)c1 was 16.62%.
Result for NC(=O)C1CCCN(S(=O)(=O)c2cc(Br)ccc2F)C1 (stereo not drawn) was -2.133%.
Result for CCOCC1CCN(C(=O)NCCC2=CCOCC2)C1 (stereo not drawn) was 17.45%.
Result for COCC(=O)N[C@H]1CC[C@H](N)CC1 was -4.213%.
Result for C=C(C)CSCC(=O)NC1CCOCC1 was 3.983%.
Result for CC(C)Cc1cc(C(=O)NCC2CCCN(C)C2)[nH]n1 (stereo not drawn) was 21.03%.
Result for Cc1cc(C(=O)NCC2(O)CCCNC2)cc(=O)[nH]1 (stereo not drawn) was -12.13%.
Result for CC(=O)Nc1cccc(N2CC(C(N)=O)CC2=O)c1 (stereo not drawn) was 6.368%.
Result for CCOC(=O)C(C)(O)c1ccc(F)c(F)c1 (stereo not drawn) was 4.179%.
Result for O=C1CCN(CCOc2cc(F)cc(Br)c2)CCN1 was 71.76%.
Result for COc1ccc(CNC(=O)CN)cc1 was 8.975%.

The first 4 entries again:

- CSc1ccc2c(c1)CCN(C(=O)C1CCNC1)C2 (stereo not drawn) : 72.69%
- Cc1cnccc1NCCNC(=O)[C@H]1CCC[C@H](O)C1 : -1.656%
- COc1ccnc(CSc2n[nH]c(=O)n2C)c1OC : -6.21%
- O=S1(=O)CCC(CNc2ccnc3cc(F)ccc23)C1 (stereo not drawn) : -10.86%

From ChEMBL document CHEMBL3988442, “University of Dundee, Small-Polar-MMV Screening Library” (2021).